# According to PubChem BioAssay AID2685 (National Center for Advancing Translational Sciences (NCATS), 2010):
# Some of the results follow. Further columns of the screen follow, without active or inactive calls. Most of these compounds were active or inconclusive in the main read-out, so they are no random draw. The note in brackets gives the kind of curve behind each potency; many fits are weak.
# Experiment: qHTS Assay for Lipid Storage Modulators in Drosophila S3 Cells;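 as to cell number change: cells counted by Cell Tracker Red CMTPX staining in the red channel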
# Settings: BODIPY lipid droplet fluorescence, 18-24 h; for cell number change: measured here: cell count max response, cells fed with added oleic acid
# How it was run: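 Drosophila S3 cells loaded with oleic acid (400 uM, as added) and compounds at several concentrations; lipid droplets imaged by 488-nm laser-scanning cytometry, 500–530 nm intensity and object ratio to cell channel. Percent activity normalized to 20 uM Triacsin C.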
# [1] = measured here: cell number channel AC50, cells fed with added oleic acid
# [2] = measured here: lipid fluorescence (Fed channel) AC50, cells fed with added oleic acid
Compound,cell number change [%],AC50 [1],AC50 [2]
COc1ccc(CCNCc2ccncc2)cc1,-48.4,"8.2 µM [falling, partial curve, poor fit]","0.13 µM [falling, full curve, poor fit]"
Cc1ccc(C(O)(c2ccc(C)c(C)c2)C2CN3CCC2CC3)cc1C (configuration not stated),,"0.13 µM [falling, full curve, poor fit]","1.03 µM [falling, full curve, poor fit]"
C=C[C@]1(C)C[C@H]1[C@H](NP(=O)(c1ccccc1)c1ccccc1)c1ccccc1,,"6.51 µM [falling, single point]",
CC(C)C1(C)N=C(c2ncccc2C(=O)O)NC1=O (configuration not stated),5.83,,
COc1ccc(C(=O)C2CCCN(Cc3ccc(F)cc3F)C2)cc1F (configuration not stated),-0.343,,
C=CCN1C(=O)/C(=C/c2ccc(N3CCOCC3)o2)C(=O)NC1=S,,,"23.1 µM [falling, single point]"
O=C1C2CCN(CC2)C1Cc1ccccc1O (configuration not stated),6.63,,
Cc1ccc(N2C(=O)NC(=O)/C(=C\c3ccoc3)C2=O)cc1,-39.5,"32.6 µM [falling, single point]","16.4 µM [falling, single point]"
CN(C)C(=O)Oc1ccc(-c2nnco2)cc1,,,"2.31 µM [rising, single point]"
CCC(=NCCCO)c1c(O)n(-c2ccc(OC)cc2)c(=O)[nH]c1=O,3.56,,"5.8 µM [falling, single point]"
COc1ccc(N2C(=O)CC(=O)NC2=O)cc1,-15.6,"0.00461 µM [falling, full curve, poor fit]","0.82 µM [falling, full curve]"
COc1ccc(-c2nc3ccccc3c(=O)n2-c2ccc(OC)cc2)cc1,-9.67,,"29.1 µM [falling, single point]"
Cn1c(NN=O)nc2ccccc21,-63.4,"18.4 µM [falling, single point]","18.4 µM [falling, partial curve]"
O=c1[nH]c(=O)n(-c2cccc3ccccc23)c(O)c1C=NCCCn1ccnc1,35.5,"4.61 µM [rising, partial curve, poor fit]","4.11 µM [falling, partial curve]"
c1ccc(C2CC3CC4(CCCC4)N2O3)cc1 (configuration not stated),-11.8,,"0.231 µM [falling, full curve, poor fit]"
NCC(CC(=O)O)C1CCCCC1 (configuration not stated),-14.6,,"2.59 µM [falling, full curve, poor fit]"
CN1CC[C@@]23CCCC[C@@H]2[C@@H]1Cc1ccc(O)cc13,-4.11,"6.51 µM [falling, single point]","7.31 µM [falling, single point]"
CCCNS(=O)(=O)c1ccc(OCC(=O)N2CCN(Cc3ccccc3)CC2)cc1,-18.3,,"5.17 µM [rising, full curve]"
CCc1cc(=O)oc2c(C)c(OCC(=O)N3C[C@H]4C[C@@H](C3)c3cccc(=O)n3C4)ccc12,23.3,,"1.3 µM [rising, partial curve]"
O=C(c1ccc(C(F)(F)F)cc1)C1CCCN(Cc2ccncc2)C1 (configuration not stated),-31.7,"16.4 µM [falling, single point]","16.4 µM [falling, partial curve]"
O=C1NC(=O)C(=Cc2ccccc2OCCOc2ccc([N+](=O)[O-])cc2)C(=O)N1,-7.33,"0.731 µM [rising, single point]",
O=C(NC(=S)N1C[C@H]2C[C@H](C1)c1cccc(=O)n1C2)c1ccc(Cl)cc1,21.7,,
CCOC(=O)c1c(/N=C/C2C(=O)NC(=S)NC2=O)sc2c1CCC2,-2.99,"0.411 µM [falling, single point]",
CC1(C)C2SCC(=O)N2CCN1CC(=O)NN (configuration not stated),-10.5,,"0.103 µM [falling, full curve, poor fit]"
COC(=O)C1=C(c2ccc(-c3ccccc3)c(F)c2)C[C@@H]2CC[C@H]1N2C(=O)NCCNC(C)=O,2.65,,"0.00461 µM [rising, full curve, poor fit]"
O=c1c2ccccc2ccc2ccc(P(=O)(O)O)cc12,,,"1.16 µM [rising, single point]"
CC(N)Cc1c[nH]c2cc3c(cc12)OCCO3 (configuration not stated),,"3.66 µM [falling, single point]",
COC(=O)C1=C(c2ccc(F)cc2F)C[C@@H]2CC[C@H]1N2C(=O)NCCO,1.56,,"6.51 µM [rising, single point]"
O=C(c1cc2nc(-c3ccccc3)cc(-c3ccccc3)n2n1)N1CCC2(CC1)OCCO2,,,"0.411 µM [rising, partial curve, poor fit]"
CCN1CCN(c2ccc(N)cc2C)CC1,92.1,"25.9 µM [rising, partial curve]",

# Looked up by compound from the list above (2):
Compound,cell number change [%],AC50 [1],AC50 [2]
COc1ccc(-c2nc3ccccc3c(=O)n2-c2ccc(OC)cc2)cc1,-9.67,,"29.1 µM [falling, single point]"
CN(C)C(=O)Oc1ccc(-c2nnco2)cc1,,,"2.31 µM [rising, single point]"
